According to paper PMC7246325 (Drug Design, Development and Therapy, 2020):

Tests used:
clinical = conditions: human, in vivo, po, 30 mg
[1] = nifedipine 30 mg, apatinib 750 mg daily, vs single administration

Q: For `COC(=O)C1=C(C)NC(C)=C(C(=O)OC)C1c1ccccc1[N+](=O)[O-]` [Nifedipine, nifedipine], which Cmax (clinical) is on record?
A: The Cmax was 23.2 ng/mL.

Q: And the Tmax (clinical)?
A: Its Tmax is 24 h.

Q: What about the “Increase of AUC0–36h on coadministration with apatinib” value [1] of the same compound?
A: The value was 80%.

Q: What about the “Increase of AUC0–48h on coadministration with apatinib” value [1] of the same compound?
A: Its value is 83%.

Q: And the “Increase of Cmax on coadministration with apatinib” value [1]?
A: The value was 64%.

Q: What about the “AUC0–36h geometric mean ratio (+ apatinib / alone)” value (nifedipine, N=20) of the same compound?
A: The value was 1.80.

Q: And the “AUC0–48h geometric mean ratio (+ apatinib / alone)” value (nifedipine, N=20)?
A: Its value is 1.83.

Q: And the “Cmax geometric mean ratio (+ apatinib / alone)” value (nifedipine, N=20)?
A: Its value is 1.64.

Q: What about the “Difference of Tmax before and after coadministration of apatinib” value (nifedipine, Wilcoxon signed-rank test) of the same compound?
A: The value was “no significant difference”.
